Experimental findings from PMC2680019 are described below.

The chains behind the UniProt entries cited, without tags or fusion partners. Residues count along the entry.
UniProt Q9HBL0, residues 1-1186: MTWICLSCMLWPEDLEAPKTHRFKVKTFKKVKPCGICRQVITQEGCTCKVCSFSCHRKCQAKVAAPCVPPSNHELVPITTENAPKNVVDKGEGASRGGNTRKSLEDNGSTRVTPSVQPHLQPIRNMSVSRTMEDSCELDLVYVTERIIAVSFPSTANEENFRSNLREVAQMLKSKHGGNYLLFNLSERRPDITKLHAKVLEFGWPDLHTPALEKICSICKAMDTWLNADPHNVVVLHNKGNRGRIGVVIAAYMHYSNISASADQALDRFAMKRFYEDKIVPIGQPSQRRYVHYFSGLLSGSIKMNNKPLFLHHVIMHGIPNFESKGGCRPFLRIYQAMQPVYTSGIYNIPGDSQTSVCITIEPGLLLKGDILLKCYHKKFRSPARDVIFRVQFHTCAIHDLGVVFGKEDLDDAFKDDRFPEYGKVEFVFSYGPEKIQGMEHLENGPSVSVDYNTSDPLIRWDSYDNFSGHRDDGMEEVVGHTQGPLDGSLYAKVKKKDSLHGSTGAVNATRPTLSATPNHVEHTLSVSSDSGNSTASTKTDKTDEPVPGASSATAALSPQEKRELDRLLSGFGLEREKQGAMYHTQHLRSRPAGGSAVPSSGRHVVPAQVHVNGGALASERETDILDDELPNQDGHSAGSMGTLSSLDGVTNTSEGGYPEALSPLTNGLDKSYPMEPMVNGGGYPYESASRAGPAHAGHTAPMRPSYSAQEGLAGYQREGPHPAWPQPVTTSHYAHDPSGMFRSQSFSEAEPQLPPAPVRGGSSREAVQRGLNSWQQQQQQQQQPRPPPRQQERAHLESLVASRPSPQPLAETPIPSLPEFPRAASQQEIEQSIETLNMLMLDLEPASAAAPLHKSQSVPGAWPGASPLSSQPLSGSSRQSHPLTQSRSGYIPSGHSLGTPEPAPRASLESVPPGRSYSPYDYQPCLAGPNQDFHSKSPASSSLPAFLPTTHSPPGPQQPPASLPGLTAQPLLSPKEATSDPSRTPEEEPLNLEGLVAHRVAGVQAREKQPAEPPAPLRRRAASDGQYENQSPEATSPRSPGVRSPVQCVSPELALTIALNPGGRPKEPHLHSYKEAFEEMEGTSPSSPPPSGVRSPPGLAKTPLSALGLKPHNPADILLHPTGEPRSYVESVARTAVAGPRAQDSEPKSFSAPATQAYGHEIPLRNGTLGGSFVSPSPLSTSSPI

Results are given in words; binding and its absence hold for the method and conditions named. In cells and extracts the contact can be indirect. For some of these results: A result given as binding can be weak or reduced; the word gives no strength. For some of these results: Tags and fused reporters may be left off the sequences shown.

Common to all, as to assay: co-IP; HEK293T co-transfected with Myc-tagged tensin and FLAG-tagged DLC1 (or GFP-tagged DLC2); cleared lysate in NET-N buffer (25 mM Tris-HCl pH 8.0, 50 mM NaCl, 0.2 mM EDTA, 0.1% NP40); anti-Myc antibody overnight at 4°C, protein-A sepharose, 5 washes; blot with anti-FLAG (anti-GFP for DLC2)
Test [1] deals with T1, Myc-tagged Tensin2 Δ1022-1272 (ΔSH2) (UniProt Q63HR2).
T1 sequence: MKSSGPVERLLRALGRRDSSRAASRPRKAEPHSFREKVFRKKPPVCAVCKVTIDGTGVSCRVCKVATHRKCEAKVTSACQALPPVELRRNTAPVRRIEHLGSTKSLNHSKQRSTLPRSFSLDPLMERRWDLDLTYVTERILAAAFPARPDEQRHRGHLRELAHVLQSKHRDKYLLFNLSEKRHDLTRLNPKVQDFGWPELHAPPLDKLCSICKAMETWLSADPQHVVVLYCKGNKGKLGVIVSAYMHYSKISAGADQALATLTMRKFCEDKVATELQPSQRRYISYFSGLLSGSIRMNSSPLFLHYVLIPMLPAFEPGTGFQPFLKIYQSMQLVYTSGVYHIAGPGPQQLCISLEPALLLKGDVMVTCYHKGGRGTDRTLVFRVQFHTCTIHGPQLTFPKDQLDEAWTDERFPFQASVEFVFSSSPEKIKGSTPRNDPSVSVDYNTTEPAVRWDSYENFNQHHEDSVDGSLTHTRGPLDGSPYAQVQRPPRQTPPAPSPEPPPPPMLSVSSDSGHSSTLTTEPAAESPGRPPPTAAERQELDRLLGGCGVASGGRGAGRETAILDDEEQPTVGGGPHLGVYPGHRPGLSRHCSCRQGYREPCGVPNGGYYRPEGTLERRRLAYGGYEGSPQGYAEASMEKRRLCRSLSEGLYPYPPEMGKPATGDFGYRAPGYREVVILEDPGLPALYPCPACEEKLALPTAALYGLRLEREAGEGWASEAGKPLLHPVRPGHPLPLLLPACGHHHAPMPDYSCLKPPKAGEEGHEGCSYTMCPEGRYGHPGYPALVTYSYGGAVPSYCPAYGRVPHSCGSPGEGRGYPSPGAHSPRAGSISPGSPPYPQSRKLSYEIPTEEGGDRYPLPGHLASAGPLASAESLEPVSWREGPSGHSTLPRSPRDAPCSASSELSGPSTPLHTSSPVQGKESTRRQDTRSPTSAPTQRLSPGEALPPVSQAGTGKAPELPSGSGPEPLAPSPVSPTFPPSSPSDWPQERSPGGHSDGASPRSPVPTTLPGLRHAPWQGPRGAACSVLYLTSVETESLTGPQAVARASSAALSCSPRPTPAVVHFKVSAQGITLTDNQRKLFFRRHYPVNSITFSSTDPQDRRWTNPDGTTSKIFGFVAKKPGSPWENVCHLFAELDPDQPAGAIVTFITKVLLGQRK

Test [2] deals with Myc-tagged tensin1 N-terminus fragment 1-1186 (UniProt Q9HBL0).
Test [3] addresses T2, Myc-tagged Tensin2 1-1021 (ΔSH2ΔPTB) (UniProt Q63HR2).
T2 sequence: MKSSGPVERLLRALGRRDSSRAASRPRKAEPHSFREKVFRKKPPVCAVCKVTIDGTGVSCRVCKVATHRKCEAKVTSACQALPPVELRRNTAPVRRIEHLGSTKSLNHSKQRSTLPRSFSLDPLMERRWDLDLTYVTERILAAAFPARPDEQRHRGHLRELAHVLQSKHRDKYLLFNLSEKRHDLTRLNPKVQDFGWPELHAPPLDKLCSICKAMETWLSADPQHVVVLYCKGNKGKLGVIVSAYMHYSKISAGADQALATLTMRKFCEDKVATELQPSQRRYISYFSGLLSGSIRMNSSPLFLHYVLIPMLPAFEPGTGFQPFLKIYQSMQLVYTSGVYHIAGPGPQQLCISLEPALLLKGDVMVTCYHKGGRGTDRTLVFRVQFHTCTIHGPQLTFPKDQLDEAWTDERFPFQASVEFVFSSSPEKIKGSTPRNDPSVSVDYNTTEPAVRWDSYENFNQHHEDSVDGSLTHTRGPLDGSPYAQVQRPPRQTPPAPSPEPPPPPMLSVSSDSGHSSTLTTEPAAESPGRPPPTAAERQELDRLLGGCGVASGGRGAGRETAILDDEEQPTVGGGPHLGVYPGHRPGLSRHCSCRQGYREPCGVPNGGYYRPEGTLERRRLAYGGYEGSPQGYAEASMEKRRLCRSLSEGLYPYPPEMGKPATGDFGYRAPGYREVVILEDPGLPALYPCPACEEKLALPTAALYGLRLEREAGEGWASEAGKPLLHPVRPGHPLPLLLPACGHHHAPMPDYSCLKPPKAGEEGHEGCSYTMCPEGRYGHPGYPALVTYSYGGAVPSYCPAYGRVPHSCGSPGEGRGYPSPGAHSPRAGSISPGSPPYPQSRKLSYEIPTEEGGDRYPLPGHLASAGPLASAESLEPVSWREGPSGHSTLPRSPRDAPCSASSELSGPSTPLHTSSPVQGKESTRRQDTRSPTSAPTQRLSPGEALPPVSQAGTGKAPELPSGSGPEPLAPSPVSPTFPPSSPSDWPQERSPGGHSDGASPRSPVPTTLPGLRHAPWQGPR

“FLAG-tagged DLC1 1-400 (from UniProt Q96QB1-1) (domain or fragment)”: the binding entry in test [1] is listed as “binds”.

Turning to “FLAG-tagged DLC1 FL (Deleted in liver cancer 1, wild-type) (from UniProt Q96QB1-1)”, the binding entry in test [2] was “no binding”; in test [3], “no binding”; in test [1], “binds”.
